Experimental data reported in the supplement of paper PMC12889115.
The list shows a part of the results. These are raw signals, not scaled to a control.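 Primary screen: polymyxin B was added at a level permeabilizing Salmonella outer membranes while sparing inner membranes. DMSO wells, both with and without polymyxin B, established maximum growth. Plate-to-plate variation meant each plate was ranked on its own, and the lowest-OD600 compounds were selected as hits.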

Tested on: Salmonella enterica serovar Typhimurium SL1344
Test: bacterial growth OD600 after 18 h with compound and polymyxin B; higher = more bacterial growth (less inhibition)
Conditions: 50 µM, Mueller-Hinton broth

Compound | bacterial growth OD600 (polymyxin B 1 µg/mL) | bacterial growth OD600 (polymyxin B 0.75 µg/mL)
O=C(NCc1cc2cc(Cl)ccc2[nH]1)C1CCC(=O)N(CCCN2CCOCC2)C1 (stereo unspecified) | 0.76 | 
C=CCC(=O)N1CCc2[nH]nc(-c3ccc4c(c3)OCO4)c2C1 |  | 0.985
COC(=O)c1cc(CNC(=O)C2CCC2)cc(NS(=O)(=O)c2cccc(C(F)(F)F)c2)c1 |  | 0.694
COCC(C)NC(=O)c1cc(OC)ccc1OC1CCN(C2CCCC2)CC1 (stereo unspecified) | 1.21 | 
O=CN1CCCN(c2nc3nonc3nc2N2CCCCCC2)CC1 | 1.12 | 
COc1ccc(F)c(CN2CCCC(O)(CN3CCSCC3)C2=O)c1 (stereo unspecified) | 0.887 | 
Cc1ccccc1Oc1ncccc1CNC(=O)C1CCN(C)CC1 |  | 0.818
CN(CC1CCN(CCc2ccc(F)cc2)CC1)C(=O)c1scc2c1OCCO2 | 1.02 | 
O=C(NC1CCCN(CCc2ccccc2)C1)c1cccc(N2CCOCC2)c1 (stereo unspecified) |  | 0.947
COCCCC1CCN(Cc2c[nH]nc2-c2cc(OC)c(OC)c(OC)c2)CC1 | 0.766 | 
COc1ccc(OC2CCN(C3CCCC3)CC2)c(C(=O)NCC(C)O)c1 (stereo unspecified) | 1.06 | 
COCc1ccc(CN2CCOc3ccc(C(O)C(c4ccccc4)c4ccccc4)cc3C2)o1 (stereo unspecified) |  | 0.776
Cc1occc1C(=O)N1CCC(C2CCN(Cc3cccnc3)CC2)C1 (stereo unspecified) |  | 1.01
CCS(=O)(=O)c1ncc(CN(C)Cc2cccc(OC)c2)n1CCc1ccccc1 |  | 0.531
C#Cc1ccc([C@@H]2C[C@H]3CN(Cc4cccc(Cl)c4)C(=O)[C@]34CCCN24)cc1 |  | 0.623
COc1ccc(CCCNC(=O)c2ccc(N3CCCOCC3)nc2)cc1 | 1.01 | 

Compound | bacterial growth OD600 (polymyxin B 1 µg/mL) | bacterial growth OD600 (polymyxin B 0.75 µg/mL)
Cc1nc(CC(=O)N2CCCC(Nc3ccc(C)c(C)c3)C2)cs1 (stereo unspecified) | 0.955 | 
Cc1ccc(-c2nn(-c3cccc(F)c3)cc2CN(C)C(C)c2nccs2)o1 (stereo unspecified) | 0.182 | 
CCOc1ccc(CN2CCN(Cc3cccc(C(C)=O)c3)CC2CCO)cc1 (stereo unspecified) | 0.827 | 
CC1CCN(CC2(O)CCCN(Cc3cccc(F)c3F)C2=O)CC1 (stereo unspecified) | 0.882 | 
CCC1CN(Cc2ccc(OC)c(O)c2)Cc2cc(OC)ccc2O1 (stereo unspecified) |  | 0.695
O=C(CCN1CCCO1)N1CCOC(Cc2ccccc2Cl)C1 (stereo unspecified) | 0.975 | 
COc1cccc(CCC2CCCN(Cc3ccncc3)C2)c1 (stereo unspecified) |  | 0.842
O=C(CC1(c2cccc(F)c2)CC(=O)N(Cc2cccnc2)C1=O)N1CCN(C2CCCCC2)CC1 (stereo unspecified) |  | 0.791
CC(C)(CNC(=O)c1cc(Cn2ccc3ccccc32)[nH]n1)N1CCOCC1 | 1 | 
Cc1cccc(CNC(=O)c2ccc(OC3CCN(C(=O)C4CC4)CC3)cc2)c1 | 0.831 | 
COCCN1C(=O)CC(CC(=O)N2CCc3c(Cl)cccc3C2)(c2ccccc2F)C1=O (stereo unspecified) |  | 0.596
CC(=O)c1ccc(C(=O)N(C)C2CCCN(CCc3ccccc3)C2)cc1 (stereo unspecified) | 1.27 | 
CO[C@H]1[C@H](NC(=O)c2ccccn2)c2ccccc2C12CCN(C(=O)CN1CCCC1=O)CC2 |  | 0.852
CN(CCc1ccccc1)Cc1nc(-c2ccc(C(F)(F)F)cc2)no1 | 0.971 | 
CCC(=O)N(Cc1cc2c(OC)ccc(OC)c2nc1N1CCOCC1)CC1COc2ccccc2O1 (stereo unspecified) |  | 0.005

Reprinted at random: 2 compounds from above
Compound | bacterial growth OD600 (polymyxin B 1 µg/mL) | bacterial growth OD600 (polymyxin B 0.75 µg/mL)
CCC1CN(Cc2ccc(OC)c(O)c2)Cc2cc(OC)ccc2O1 (stereo unspecified) |  | 0.695
COCC(C)NC(=O)c1cc(OC)ccc1OC1CCN(C2CCCC2)CC1 (stereo unspecified) | 1.21 | 
